Measurements published in doi:10.1101/2024.03.08.584044.
No constants are given. Whether binding was seen depends on the method and setting. In cells and extracts the contact can be indirect. A result given as binding can be weak or reduced; the word gives no strength. Tags and fused reporters may be left off the sequences shown.

Molecular target: Exo70-Flag (expressed in HEK293T cells) (UniProt Q9UPT5)
Experiment: co-IP

B1: Snapin-GFP (protein, UniProt O95295 1-136)
chain: MAGAGSAAVSGAGTPVAGPTGRDLFAEGLLEFLRPAVQQLDSHVHAVRESQVELREQIDNLATELCRINEDQKVALDLDPYVKKLLNARRRVVLVNNILQNAQERLRRLNHSVAKETARRRAMLDSGIYPPGSPGK
Question: How did the binding turn out when B1 was run?
Answer: binds
